Results from US20240287046A1, “COMPOUNDS AND RADIOLIGANDS FOR TARGETING NEUROTENSIN RECEPTOR AND USES THEREOF” (Full-Life Technologies HK Limited, priority 2022, published 2024).
At least one compound was matched to its structure with a doubt left.

Protein sequences, listed by entry. Tags and fused reporters are not part of them.
UniProt P30989, whole entry: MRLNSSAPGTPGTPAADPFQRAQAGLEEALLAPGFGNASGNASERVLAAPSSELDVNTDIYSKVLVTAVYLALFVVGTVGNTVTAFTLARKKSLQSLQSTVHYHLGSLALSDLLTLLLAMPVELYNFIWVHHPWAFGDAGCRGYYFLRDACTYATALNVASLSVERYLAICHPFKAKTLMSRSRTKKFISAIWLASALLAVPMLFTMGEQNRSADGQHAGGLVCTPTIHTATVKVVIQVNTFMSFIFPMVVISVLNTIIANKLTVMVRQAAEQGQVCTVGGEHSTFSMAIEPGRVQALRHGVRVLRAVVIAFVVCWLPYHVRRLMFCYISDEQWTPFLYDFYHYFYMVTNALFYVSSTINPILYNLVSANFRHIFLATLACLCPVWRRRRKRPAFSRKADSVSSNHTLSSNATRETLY

Legend:
human NTSR-1 = human NTSR-1 (Homo sapiens (Human), UniProt P30989); assay: radioligand competitive binding assay using ^177Lu labeled C-1 as reference radioligand; conditions: for Relative Binding Affinity: Mean IC50 of C-1/Mean IC50 of the test compound
Procedure: The binding affinities of test compounds were determined by a radioligand competitive binding assay using ^177Lu labeled C-1 as the reference radioligand.
Briefly, 100 μL HT-29 cells expressing human NTSR-1 at a density of 1˜2×10^6 cells/mL were mixed with binding buffer (RPMI-1640 medium supplemented with 0.25% bovine serum albumin) in each well of the 96-well filter plate (Millipore). Then the cells in each well were incubated with ^177Lu—C-1 (0.55 μCi/well) and the test compound under 37° C. for 1 hr (n=3). After incubation, unbound ^177Lu—C-1 and the test compound in each well was removed by filtration using a Multiscreen vacuum manifold (Millipore) and the cells were further rinsed with the binding buffer for 5 times. The cells from each well were then collected and radioactivity of the cells in each well was individually measured by y counter (2480 WIZARD2, PerkinElmer). The best-fit IC50 value of test compounds (inhibitory concentration when 50% of the bound ^177Lu—C-1 on cells were displaced) were calculated by fitting the data with nonlinear regression using GraphPad Prism 8.0.1.

[1] = test system: ASPC-1 tumor-bearing mice; assay: Biodistribution of radionuclide labeled complexes in ASPC-1 tumor-bearing mice; format: in vivo, BALB/c nude mice
Procedure: The BALB/c nude mice (Charles River, Beijing) were utilized to establish the xenografted model for biodistribution study. All animal care and experimental procedure were performed by following the animal protocols approved by the ethics committee of China Institute of Radiation Protection.
Briefly, each mouse was inoculated with approximately 4×10^6 ASPC-1 cells (human pancreatic cancer cell line) or HT-29 cells (human colorectal adenocarcinoma cell line) expressing human NTSR-1 by subcutaneous injection at rear flank. After inoculation, the xenografted tumors were allowed to grow for ˜2-4 weeks till the tumor weight reached to about 0.05 to 0.50 g (0.20 g in average).
Biodistribution studies were performed by administrating the radionuclide labeled test compound at a dose of ˜30-50 μCi (100 μL in 0.9% NaCl, ˜1.11-1.85 MBq, with specific activity 30-250 μCi/nmol) to each animal through tail vein injection.
At different time points after the administration, the mice treated with each compound were euthanized. The tissues and organs of the animals in each group were collected, excised, weighed, and analyzed in a PerkinElmer 2480 WIZARD2γ counter, and the percent injected dose (% ID) and % ID/g of each organ or tissue were calculated.

Row | SMILES | Relative Binding Affinity (human NTSR-1) | binding affinity compared to comparator compound C-1 or C-3 (human NTSR-1; single radioligand competitive binding assay) | % ID/g (4 h) Spleen [1]
1 | COc1cccc(OC)c1-c1cc(C(=O)NC2(C(=O)O)C3CC4CC(C3)CC2C4)nn1-c1ccc(NCCCN(C)CCCNC(=O)CN2CCN(CC(=O)O)CCN(CC(=O)O)CCN(CC(=O)O)CC2)cc1C(C)C (centres unmarked) [Compound I-2, 2,2′,2″-(10-(2-((3-((3-((4-(3-((−2-carboxyadamantan-2-yl)carbamoyl)-5-(2,6-dimethoxyphenyl)-1H-pyrazol-1-yl)-3-isopropylphenyl)amino)propyl)(methyl)amino)propy)amino)-2-oxoethyl)-1,4,7,10-tetraazacyclododecane-1,4,7-triyl)triacetic acid] | 76.5 | higher binding affinity | 
2 | COc1cccc(OC)c1-c1cc(C(=O)NC2(C(=O)O)C3CC4CC(C3)CC2C4)nn1-c1ccc(SCCCN(C)CCCN(C)C(=O)CN2CCN(CC(=O)O)CCN(CC(=O)O)CCN(CC(=O)O)CC2)cc1C(C)C (centres unmarked) [Compound I-8] | 71.4 |  | 
3 | COc1cccc(OC)c1-c1cc(C(=O)NC2(C(=O)O)C3CC4CC(C3)CC2C4)nn1-c1ccc(NCCOCCOCCOCCOCCOCCNC(=O)CN2CCN(CC(=O)O)CCN(CC(=O)O)CCN(CC(=O)O)CC2)cc1C(C)C (centres unmarked) [Compound I-11, 2,2′,2″-(10-(20-((4-(3-((2-carboxyadamantan-2-yl)carbamoyl)-5-(2,6-dimethoxyphenyl)-1H-pyrazol-1-yl)-3-Isopropylphenyl)amino)-2-oxo-6,9,12,15,18-pentaoxa-3-azaicosyl)-1,4,7,10-tetraazacyclododecane-1,4,7-triyl)triacetic acid] | 99.8 |  | 
4 | COc1cccc(OC)c1-c1cc(C(=O)NC2(C(=O)O)C3CC4CC(C3)CC2C4)nn1-c1ccc(NCCCN(C)CCCNC(=O)CN2CCN(CC(=O)[O-])CCN(CC(=O)[O-])CCN(CC(=O)[O-])CC2)cc1C(C)C.[177Lu+3] (centres unmarked) [^177Lu-I-2] |  |  | 1.05 ± 0,65 % ID/g
